The results are deposited in PubChem (AID1053133; Broad Institute, 2014).

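Vaccinia-infected cells with a two-color viral stage reporter; Venus fluorescence read on a plate reader; the cell line is not named here; timing not stated here. The test concentration is not given here. Percent change in Venus reporter signal; lower (more negative) values mean stronger inhibition of that viral stage.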

Values are in %. The controls that fix the scale are not given here. Common to all entries: measured here: Venus reporter, other viral stage. This is a side read-out of the assay, for part of the compounds, not drawn at random.

Result for C[C@H]1CN([C@@H](C)CO)C(=O)Cc2cc(NC(=O)Nc3ccccc3)ccc2O[C@H]1CN(C)Cc1ccc(C(F)(F)F)cc1 was activity change (Venus) -43.5%.
Result for COc1ccccc1-c1ccc2c(c1)[C@H]1[C@H](CCN1S(=O)(=O)c1ccccc1F)[C@H](CO)N2 was activity change (Venus) -49.58%.
Result for COc1ccccc1C#Cc1ccc2c(c1)O[C@@H](CN(C)C)[C@@H](C)CN([C@@H](C)CO)S2(=O)=O was activity change (Venus) -54.69%.
Result for C[C@@H]1CN([C@H](C)CO)C(=O)c2cc(NS(=O)(=O)c3ccc(Cl)cc3)ccc2O[C@@H](C)CCCCO[C@@H]1CN(C)C(=O)Cc1ccccc1 was activity change (Venus) -36.4%.
Result for COc1ccc2c3c(n(C)c2c1)[C@@H](CO)N(C(=O)Nc1ccc(F)cc1)CC31CCN(Cc2ccccc2F)CC1 was activity change (Venus) -54.19%.
Result for OC[C@@H]1Nc2ccc(-c3cccc(F)c3)cc2[C@@H]2[C@H]1CCN2Cc1ccncc1 was activity change (Venus) -38.93%.
Result for O=C(c1cccc(F)c1)N1CCCCN2[C@H](CO)[C@H](c3ccc(/C=C/c4ccccc4)cc3)[C@H]2C1 was activity change (Venus) -73.23%.
Result for C[C@@H]1CCCCO[C@H](CN(C)C(=O)C2CCCCC2)[C@H](C)CN([C@H](C)CO)C(=O)c2cc(NS(=O)(=O)c3cccs3)ccc2O1 was activity change (Venus) -37.79%.
Result for O=C(C[C@@H]1CC[C@@H](NC(=O)c2cccc(F)c2)[C@H](CO)O1)NCc1ccc(Oc2ccccc2)cc1 was activity change (Venus) -38.5%.
Result for COc1ccc(NC(=O)N(C)C[C@H]2Oc3cc(C#CCC(C)C)ccc3S(=O)(=O)N([C@@H](C)CO)C[C@@H]2C)cc1 was activity change (Venus) -45.13%.
Result for CCC(=O)N1CC(=O)N2[C@H](CO)[C@H](c3ccc(C#Cc4cccc(F)c4)cc3)[C@H]2C1 was activity change (Venus) -54.98%.
Result for COc1ccc2c3c([nH]c2c1)[C@@H](CO)N(C(=O)CN(C)C)CC31CCN(Cc2ccccc2Cl)CC1 was activity change (Venus) -61.86%.
Result for CC(C)C#Cc1ccc2c(c1)O[C@@H](CN(C)C(=O)c1cccc(F)c1)[C@H](C)CN([C@H](C)CO)S2(=O)=O was activity change (Venus) -32.48%.
Result for CC(C)NC(=O)N1CC(=O)N2[C@H](C1)[C@H](c1ccc(/C=C/c3ccccc3)cc1)[C@@H]2CO was activity change (Venus) -21.48%.
Result for Cc1ccc(S(=O)(=O)Nc2ccc3c(c2)C(=O)N([C@H](C)CO)C[C@@H](C)[C@H](CN(C)C(=O)Cc2ccccc2)OCCCC[C@@H](C)O3)cc1 was activity change (Venus) -30.95%.
Result for C[C@@H]1CN([C@@H](C)CO)S(=O)(=O)c2ccc(C#CC3CCCCC3)cc2O[C@H]1CN(C)C was activity change (Venus) -47.08%.
Result for C[C@@H]1CN([C@@H](C)CO)C(=O)c2cccc(NC(=O)Nc3ccccc3)c2O[C@@H]1CN(C)Cc1ccc(Cl)c(Cl)c1 was activity change (Venus) -26.23%.
Result for COc1ccc(NC(=O)N(C)C[C@H]2Oc3cc(-c4ccc(C)cc4)ccc3S(=O)(=O)N([C@H](C)CO)C[C@H]2C)cc1 was activity change (Venus) -53.4%.
Result for COc1cccc(CNC(=O)C[C@@H]2CC[C@H]3[C@H](COc4ccc(NC(=O)c5cccs5)cc4C(=O)N3C)O2)c1 was activity change (Venus) -16.59%.
Result for C[C@@H]1CCCCO[C@@H](CN(C)Cc2ccccc2)[C@H](C)CN([C@H](C)CO)C(=O)c2cc(NS(=O)(=O)c3ccc(Cl)cc3)ccc2O1 was activity change (Venus) -64.65%.
Result for C[C@H]1CN([C@@H](C)CO)C(=O)c2cccc(NC(=O)Nc3ccc(C(F)(F)F)cc3)c2O[C@H]1CN(C)Cc1ccc(Oc2ccccc2)cc1 was activity change (Venus) -38.52%.
Result for Cc1ccc(-c2cnc3c(c2)C(=O)N([C@H](C)CO)C[C@H](C)[C@@H](CN(C)CC2CCCC2)O3)cc1 was activity change (Venus) -26.66%.
Result for COc1ccc(S(=O)(=O)N(C)C[C@H]2Oc3c(NC(=O)Nc4ccc(C(F)(F)F)cc4)cccc3C(=O)N([C@@H](C)CO)C[C@H]2C)cc1 was activity change (Venus) -71.59%.
Result for Cc1noc(C)c1S(=O)(=O)N(C)C[C@H]1Oc2c(NC(=O)c3ccc(-c4nccs4)cc3)cccc2C(=O)N([C@H](C)CO)C[C@H]1C was activity change (Venus) -21.43%.
Result for COc1ccccc1C#Cc1ccc([C@H]2[C@H]3CN(C(=O)C4CCCC4)CCCCN3[C@H]2CO)cc1 was activity change (Venus) -29.99%.
Result for C[C@@H]1CN([C@@H](C)CO)C(=O)c2cc(NC(=O)Cc3ccccc3)ccc2O[C@@H](C)CCCCO[C@H]1CN(C)C(=O)Cc1ccccc1 was activity change (Venus) -30.89%.

For reference, 2 entries once more:

{"smiles": "Cc1ccc(-c2cnc3c(c2)C(=O)N([C@H](C)CO)C[C@H](C)[C@@H](CN(C)CC2CCCC2)O3)cc1", "activity change (Venus) (%)": "-26.66"}
{"smiles": "Cc1ccc(S(=O)(=O)Nc2ccc3c(c2)C(=O)N([C@H](C)CO)C[C@@H](C)[C@H](CN(C)C(=O)Cc2ccccc2)OCCCC[C@@H](C)O3)cc1", "activity change (Venus) (%)": "-30.95"}